Experimental data: PubChem BioAssay AID1224828 (NIAID, 2016)
Here is one part, drawn at random, of about 17,000 reagents. 762 of them (4.5%) were called active. 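Active calls include both raised and lowered p65 entry, mostly lowered; wells with fewer than 50 cells lack a z-score.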 Raw values vary from plate to plate and are shown uncorrected. Entries without a mark were called inactive. The numbers tell different reagents against one gene apart.

Purpose: 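Knock-downs that increase or decrease LPS-induced p65 nuclear translocation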 (primary screen)
Cells: mouse RAW264.7 G9 macrophage reporter cells (GFP-p65, Tnf promoter-mCherry)
Knock-down reagent: siRNA pool against mouse genes, 100 nM
Time to read-out: 2 days siRNA transfection, then 40 min LPS before fixation
Conditions: LPS (Salmonella minnesota R595) at 10 ng/ml
Read-out: 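Imaged p65 nuclear translocation ratio, normalised to the plate median, converted to robust z-scores and averaged across two replicates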
Reading the numbers: p65 translocation robust z-score: higher = more nuclear NF-kappaB p65 after LPS than the plate median; nuclear/cytoplasmic p65 ratio: higher = more nuclear NF-kappaB p65
Call rule: 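Called active when z exceeds 3.3 or falls under -1.56 (median of Tlr4 controls), giving activity score of at least 50; no calls for control wells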
Calls: active = hit (p65 shift raised or lowered); inactive = no clear change

gene	pool no.	p65 translocation robust z-score	nuclear/cytoplasmic p65 ratio, rep 1	nuclear/cytoplasmic p65 ratio, rep 2	low cell count flag
Emx1	1	-0.71	1.41	1.24	enough cells to score
Uba2	1		1.7	1.19	fewer than 50 cells per well; well left out of scoring
Plod2	1	-0.39	1.33	1.17	enough cells to score
Mrpl47	1		1.21	1.2	fewer than 50 cells per well; well left out of scoring
Myh7	1	-0.83	1.3	1.26	enough cells to score
Csn1s2a	1	-3.05 (active)	1.1	1.31	enough cells to score
Csf2rb	1	-0.33	1.36	1.4	enough cells to score
Golm1	1	-1.56	1.28	1.44	enough cells to score
Slc17a9	1	0.31	1.69	1.82	enough cells to score
C130050O18Rik	1	0.5	1.47	1.62	enough cells to score
Krt7	1	-0.46	1.36	1.37	enough cells to score
Maz	1		1.18	1.15	fewer than 50 cells per well; well left out of scoring
Gdf6	1	-0.75	1.43	1.41	enough cells to score
Tlcd1	1	1.03	1.56	1.71	enough cells to score
Rgs9bp	1		1.32	1.03	fewer than 50 cells per well; well left out of scoring
Eed	1	-0.98	1.35	1.22	enough cells to score
Slc22a5	1	-0.12	1.51	1.49	enough cells to score
Cltrn	1		1.07	1.13	fewer than 50 cells per well; well left out of scoring
Dmac1	1		1.46	1.23	fewer than 50 cells per well; well left out of scoring
Ifna14	1	-1.05	1.28	1.26	enough cells to score
Patl1	1	-0.33	1.58	1.53	enough cells to score
Rbpjl	1	-1.67 (active)	1.35	1.22	enough cells to score
Ankrd54	1	0.45	1.61	1.91	enough cells to score
C1rl	1		1.42	1.49	fewer than 50 cells per well; well left out of scoring
Omg	1	-0.02	1.43	1.25	enough cells to score
Ccdc126	1		1.43	1.09	fewer than 50 cells per well; well left out of scoring
Osbpl1a	1	-0.31	1.4	1.38	enough cells to score
Osbpl1a	2	0.42	1.65	1.52	enough cells to score
Dnpep	1	0.07	1.38	1.38	enough cells to score
Wnt4	1	-0.65	1.37	1.56	enough cells to score
Kcng4	1	-0.67	1.49	1.31	enough cells to score
Tmpo	1	1.29	1.46	1.4	enough cells to score
Anp32e	1	-0.11	1.5	1.76	enough cells to score
Tmem41b	1	0.54	1.56	1.65	enough cells to score
Cd200r3	1	1.6	1.5	1.42	enough cells to score
Dnaaf9	1	1.15	1.31	1.44	enough cells to score
Or8g55	1	-0.2	1.5	1.15	enough cells to score
Rdh5	1	-0.53	1.44	1.45	enough cells to score
Or8g28	1	1.95	1.81	1.38	enough cells to score
Pcyox1l	1	1.42	1.84	1.98	enough cells to score
Adcy10	1	-1.38	1.47	1.18	enough cells to score
Ube2v1	1	0.43	1.42	1.3	enough cells to score
Pbdc1	1	-1.07	1.27	1.31	enough cells to score
V1rb5 (retired record)	1	1.4	1.58	1.37	enough cells to score
Or5b124	1	-0.64	1.31	1.51	enough cells to score
Stk32c	1	-0.1	1.46	1.37	enough cells to score
Spata31d1a	1		1.39	1.51	fewer than 50 cells per well; well left out of scoring
Dhcr24	1	-0.09	1.47	1.36	enough cells to score
Tnnt3	1		0	1.04	fewer than 50 cells per well; well left out of scoring
Dph7	1		1.29	1.11	fewer than 50 cells per well; well left out of scoring
Rab5c	1	-0.77	1.5	1.32	enough cells to score
Aplnr	1	-0.06	1.54	1.53	enough cells to score
Ugt8a	1	0.31	1.59	1.52	enough cells to score
Impg2	1	-0.93	1.52	1.32	enough cells to score
Gnao1	1	1.23	1.67	1.77	enough cells to score
Myh9	1	-1.14	1.32	1.17	enough cells to score
Bgn	1	-0.48	1.53	1.55	enough cells to score
Zfp365	1	0.45	1.5	1.28	enough cells to score
Zbtb38	1	-0.6	1.3	1.26	enough cells to score
Crym	1	0.09	1.54	1.34	enough cells to score
Cpox	1	-0.31	1.5	1.28	enough cells to score
Haus4	1	-1.14	1.34	1.68	enough cells to score
Galc	1	2.34	1.81	1.61	enough cells to score
Ppp1r14b	1	1.45	1.66	1.63	enough cells to score
Psmd11	1		1.3	0	fewer than 50 cells per well; well left out of scoring
Ext1	1	2.94	1.96	1.65	enough cells to score
Spdye4a	1		1.13	1.18	fewer than 50 cells per well; well left out of scoring
Flt4	1	-0.35	1.63	1.34	enough cells to score
Far1	1		1.28	1.19	fewer than 50 cells per well; well left out of scoring
Banp	1	-0.72	1.51	1.5	enough cells to score
Serpinh1	1	0.03	1.39	1.73	enough cells to score
Herc4	1	-0.02	1.57	1.65	enough cells to score
Gdf7	1	-0.69	1.47	1.39	enough cells to score
Prr14l	1		1.38	1.49	fewer than 50 cells per well; well left out of scoring
Faim2	1	-1.21	1.34	1.36	enough cells to score

Records above whose gene name begins with F or f (3):
gene	pool no.	p65 translocation robust z-score	nuclear/cytoplasmic p65 ratio, rep 1	nuclear/cytoplasmic p65 ratio, rep 2	low cell count flag
Flt4	1	-0.35	1.63	1.34	enough cells to score
Far1	1		1.28	1.19	fewer than 50 cells per well; well left out of scoring
Faim2	1	-1.21	1.34	1.36	enough cells to score
